Experimental data: patent publication US20070099983A1, “Aminocyclohexyl ether compounds and uses thereof” (Cardiome Pharma Corp., priority 2003, published 2007)

Assay: Determination of therapeutic index
Format: in vivo, rat
Details: Cumulative convulsion dose/(20×ED50AA)

Row | Compound | Therapeutic index
1 | COc1ccc(CCO[C@H]2CCCCC2N2CCCC2)cc1OC.Cl (stereo partly drawn) [Compound 10, 1-{(1R,2R)/(1S,2S)-2-[2-(3,4-dimethoxyphenyl)-ethoxy]cyclohexyl}-pyrrolidine hydrochloride] | 4.4
2 | COc1ccc(CCOC2CCCC[C@H]2N2CC=CC2)cc1OC.Cl (stereo partly drawn) [Compound 16, 1-{(1R,2R)/(1S,2S)-2-[2-(3,4-dimethoxyphenyl)-ethoxy]cyclohexyl}-2,5-dihydro-1H-pyrrole hydrochloride] | 0.9
3 | COc1ccc(CCCO[C@H]2CCCCC2N2CCOCC2)cc1OC.Cl (stereo partly drawn) [Compound 19, 4-{(1R,2R)/(1S,2S)-2-[3-(3,4-dimethoxyphenyl)-propoxy]cyclohexyl}morpholine hydrochloride] | 3.6
